PubChem BioAssay (NCATS)
Inconclusive results, whose numbers are uncertain, are shown with a selection of clear calls. Potencies beside an inconclusive call are fits to weak or partial responses and may not hold up. Active and inactive are the calls of the source. Calls follow the shape of the dose curve; as a rule, active = well fitted curve in the direction sought with a large enough effect; inconclusive = small, poorly fitted or top-dose-only effect, or another doubt; inactive = no such curve, though single readings can be large; an effect the other way counts as inactive or inconclusive.

Columns and labels:
[1] = Quantitative High-Throughput drug screen in 47 multiple myeloma cell lines against the NCATS MIPE library collection: JIM3_ECACC cell viability assay (AID 1918963; also: nearly all actives have a fitted effect of over 35% in size); settings: JIM3 myeloma viability, CellTiter-Glo ATP, 48 h; viability, percent of control: at 45.8 µM (top of the series) unless noted
In short: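 We plated 500 myeloma cells per well, pinned in MIPE 4.0 compounds, and incubated for 48 hours at 37C. ATP was then quantified with CellTiter-Glo, with DMSO and media-only wells defining 100% and 0%.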

[2] = Quantitative High-Throughput drug screen in 47 multiple myeloma cell lines against the NCATS MIPE library collection: JIM1_ECACC cell viability assay (AID 1918964); settings: JIM1 myeloma viability, CellTiter-Glo ATP luminescence, 48 h; viability (% of DMSO): at 45.8 µM (top of the series)
In short: (§1)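 Myeloma cell lines, 500 cells per well, exposed to MIPE 4.0 library compounds for 48 h at 37C, 5% CO2. Viability from ATP by CellTiter-Glo luminescence; normalised to DMSO (100%) and media-only (0%) wells.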

[3] = Quantitative High-Throughput drug screen in 47 multiple myeloma cell lines against the NCATS MIPE library collection: MOLP8_DSMZ cell viability assay (AID 1918977); settings: MOLP8 myeloma viability, CellTiter-Glo ATP luminescence, 48 h; viability (% of control): at 45.8 µM (top of the series); also: nearly all actives have a fitted effect of over 45% in size
In short: (§2)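 Cells were exposed to library compounds for 48 hours, after which ATP was measured by CellTiter-Glo. Signal was taken as median relative luminescence units.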

[4] = Quantitative High-Throughput drug screen in 47 multiple myeloma cell lines against the NCATS MIPE library collection: LP1_DSMZ cell viability assay (AID 1918982); also: nearly all actives have a fitted effect of over 35% in size
In short: as §2

[5] = Quantitative High-Throughput drug screen in 47 multiple myeloma cell lines against the NCATS MIPE library collection: KMS28PE_JCRB cell viability assay (AID 1918983); also: nearly all actives have a fitted effect of over 35% in size
In short: as §2

[6] = Quantitative High-Throughput drug screen in 47 multiple myeloma cell lines against the NCATS MIPE library collection: INA6_PLB cell viability assay (AID 1918965; also: nearly all actives have a fitted effect of over 55% in size); settings: INA6 myeloma viability, CellTiter-Glo ATP luminescence, 48 h; viability (% of control): at 45.8 µM (top of the series)
In short: (§3)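 Viability readout: CellTiter-Glo luminescence following 5 min room-temperature incubation with reagent. Prior exposure: 48 h, 37C, humidified 5% CO2, 500 cells per well.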

[7] = Quantitative High-Throughput drug screen in 47 multiple myeloma cell lines against the NCATS MIPE library collection: H1112_PLB cell viability assay (AID 1918967; also: nearly all actives have a fitted effect of over 30% in size); settings: H1112 myeloma cells viability, ATP luminescence, 48 h; viability: at 45.8 µM (top of the series)
In short: as §1

[8] = Quantitative High-Throughput drug screen in 47 multiple myeloma cell lines against the NCATS MIPE library collection: KMS12BM_JCRB cell viability assay (AID 1918971); also: nearly all actives have a fitted effect of over 35% in size
In short: (§4)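 Luminescent ATP measurement with CellTiter-Glo gives viability, scaled between DMSO-only wells (100%) and media-only wells (0%). Cells, 500 per well, faced library compounds for 48 hours at 37C.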

[9] = Quantitative High-Throughput drug screen in 47 multiple myeloma cell lines against the NCATS MIPE library collection: KMS12PE_JCRB cell viability assay (AID 1918972); settings: KMS12PE myeloma viability, CellTiter-Glo ATP, 48 h; viability: at 45.8 µM (top of the series); also: nearly all actives have a fitted effect of over 30% in size
In short: as §3

[10] = Quantitative High-Throughput drug screen in 47 multiple myeloma cell lines against the NCATS MIPE library collection: KMS20_JCRB cell viability assay (AID 1918973); settings: CellTiter-Glo ATP, 48 h; viability (% of DMSO): at 45.8 µM (top of the series); also: nearly all actives have a fitted effect of over 45% in size
In short: as §1

[11] = Quantitative High-Throughput drug screen in 47 multiple myeloma cell lines against the NCATS MIPE library collection: MMM1_PLB cell viability assay (AID 1918976); also: nearly all actives have a fitted effect of over 35% in size
In short: as §2

[12] = Quantitative High-Throughput drug screen in 47 multiple myeloma cell lines against the NCATS MIPE library collection: NCIH929_DSMZ cell viability assay (AID 1918978); also: nearly all actives have a fitted effect of over 35% in size
In short: as §2

[13] = Quantitative High-Throughput drug screen in 47 multiple myeloma cell lines against the NCATS MIPE library collection: MM1S_ATCC cell viability assay (AID 1918980); also: nearly all actives have a fitted effect of over 45% in size
In short: as §2

[14] = Quantitative High-Throughput drug screen in 47 multiple myeloma cell lines against the NCATS MIPE library collection: MM1R_ATCC cell viability assay (AID 1918981); also: nearly all actives have a fitted effect of over 35% in size
In short: as §2

[15] = Quantitative High-Throughput drug screen in 47 multiple myeloma cell lines against the NCATS MIPE library collection: JJN3_DSMZ cell viability assay (AID 1918966; also: nearly all actives have a fitted effect of over 50% in size); settings: JJN3 myeloma cells viability, CellTiter-Glo ATP, 48 h; viability, % of DMSO: at 45.8 µM (top of the series)
In short: as §1

[16] = Quantitative High-Throughput drug screen in 47 multiple myeloma cell lines against the NCATS MIPE library collection: Karpas25_ECACC cell viability assay (AID 1918968; also: nearly all actives have a fitted effect of over 35% in size); settings: Karpas25 myeloma viability, CellTiter-Glo ATP, 48 h; viability (% of control): at 45.8 µM (top of the series)
In short: as §1

[17] = Quantitative High-Throughput drug screen in 47 multiple myeloma cell lines against the NCATS MIPE library collection: KMS27_JCRB cell viability assay (AID 1918970); settings: KMS27 myeloma cells, CellTiter-Glo ATP viability, 48 h; viability (% of DMSO): at 45.8 µM (top of the series); also: nearly all actives have a fitted effect of over 30% in size
In short: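 Luminescent ATP read-out (CellTiter-Glo, 5 min at room temperature) after 48 h compound exposure of 500 KMS27_JCRB cells per well; DMSO wells define full viability and media-only wells zero.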

[18] = Quantitative High-Throughput drug screen in 47 multiple myeloma cell lines against the NCATS MIPE library collection: OCIMY1_PLB cell viability assay (AID 1918979); also: nearly all actives have a fitted effect of over 35% in size
In short: as §2

[19] = Quantitative High-Throughput drug screen in 47 multiple myeloma cell lines against the NCATS MIPE library collection: KMS21BM_JCRB cell viability assay (AID 1918974); settings: ATP luminescence, 48 h; viability: at 45.8 µM (top of the series) unless noted
In short: as §1

[20] = Quantitative High-Throughput drug screen in 47 multiple myeloma cell lines against the NCATS MIPE library collection: KMS26_JCRB cell viability assay (AID 1918975); settings: KMS26 myeloma cells viability, CellTiter-Glo ATP, 48 h; viability (% of DMSO): at 45.8 µM (top of the series); also: nearly all actives have a fitted effect of over 45% in size
In short: as §4
Potency is read from the fitted curve at half-maximal effect.

COc1ccc(-c2oc3c(CC=C(C)C)c(OC4O[C@H](CO)[C@@H](O)[C@H](O)[C@@H]4O)cc(O)c3c(=O)c2OC2O[C@@H](C)[C@H](O)[C@@H](O)[C@@H]2O)cc1 (stereo partly specified)
active: Potency [1] 20.9 µM | Potency [4] 20.9 µM
inconclusive: Potency [2] 10.5 µM [cytotoxic, full curve, poor fit] | Potency [3] 26.4 µM [cytotoxic, partial curve, poor fit] | Potency [5] 23.5 µM [cytotoxic, partial curve]

COc1ccc(-c2nc(N3CCOCC3)c3sc(CN(C)c4ncc(C(=O)NO)cn4)cc3n2)cn1
inconclusive: viability, percent of control [1] 2.96% [cytotoxic] | viability [7] 3% [cytotoxic] | Potency [11] 8.33 µM [cytotoxic, full curve, poor fit] | Potency [12] 0.0037 µM [cytotoxic, full curve] | Potency [4] 0.0037 µM [cytotoxic, full curve] | Potency [5] 0.469 µM [cytotoxic, partial curve]
active: Potency [9] 0.001 µM
inactive: Potency [6] | Potency [8] | Potency [10] | Potency [3] | Potency [13] | Potency [14]

Nc1nc2c(ncn2COCCO)c(=O)[nH]1
inactive: Potency [17] | Potency [10] | Potency [3] | Potency [4]
inconclusive: Potency [2] 4.69 µM [cytotoxic, full curve, poor fit] | Potency [6] 0.0148 µM [cytotoxic, full curve, poor fit] | Potency [15] 0.0148 µM [rising, full curve, poor fit] | Potency [7] 33.2 µM [cytotoxic, single point] | Potency [16] 0.001 µM | Potency [8] 1.32 µM [cytotoxic, full curve, poor fit] | Potency [9] 20.9 µM [cytotoxic, partial curve, poor fit] | Potency [11] 0.0033 µM [rising, full curve, poor fit] | Potency [18] 0.0042 µM [rising, full curve, poor fit] | Potency [13] 18.7 µM [cytotoxic, single point] | Potency [14] 16.6 µM [cytotoxic, partial curve]

CC1(C)CCC[C@@]2(C)[C@@H]1CC[C@@]1(C)OC(=O)C[C@H]21
inconclusive: Potency [8] 14.8 µM [cytotoxic, partial curve, poor fit] | Potency [10] 0.0526 µM [cytotoxic, full curve, poor fit] | Potency [20] 0.0187 µM [cytotoxic, full curve, poor fit] | Potency [11] 16.6 µM [cytotoxic, partial curve, poor fit] | Potency [3] 20.9 µM [cytotoxic, partial curve, poor fit] | Potency [13] 5.26 µM [cytotoxic, full curve, poor fit] | Potency [14] 37.2 µM [cytotoxic, single point]
inactive: Potency [1] | Potency [6] | Potency [15] | Potency [7] | Potency [19]

CN(C)N=Nc1nc[nH]c1C(N)=O
inactive: Potency [1] | Potency [16] | Potency [8] | Potency [12] | Potency [18] | Potency [13]
inconclusive: Potency [15] 23.5 µM [cytotoxic, single point] | Potency [17] 0.526 µM [cytotoxic, full curve, poor fit] | Potency [10] 0.003 µM [cytotoxic, full curve, poor fit] | Potency [19] 33.2 µM [rising, partial curve, poor fit] | Potency [3] 1.32 µM [cytotoxic, full curve, poor fit] | Potency [14] 2.96 µM [cytotoxic, full curve, poor fit]

O=C1Nc2ccc(Cl)cc2C(C#CC2CC2)(C(F)(F)F)O1 (stereo unspecified)
active: Potency [16] 20.9 µM | Potency [20] 23.5 µM
inconclusive: Potency [1] 29.6 µM [cytotoxic, single point] | Potency [15] 29.6 µM [cytotoxic, single point] | Potency [17] 29.6 µM [cytotoxic, single point] | Potency [9] 33.2 µM [cytotoxic, single point] | Potency [19] 37.2 µM [cytotoxic, partial curve, poor fit] | Potency [11] 0.0021 µM [rising, full curve, poor fit] | Potency [3] 0.0042 µM [rising, full curve] | Potency [18] 23.5 µM [cytotoxic, single point] | Potency [14] 29.6 µM [cytotoxic, single point] | Potency [5] 0.0013 µM [rising, full curve]

COc1ncnc(NS(=O)(=O)c2ccc(N)cc2)c1OC
inconclusive: Potency [15] 0.132 µM [rising, full curve, poor fit] | Potency [16] 11.8 µM [cytotoxic, full curve, poor fit] | Potency [10] 0.0033 µM [cytotoxic, full curve, poor fit] | Potency [19] 13.2 µM [cytotoxic, partial curve, poor fit]
inactive: Potency [1] | Potency [6] | Potency [7] | Potency [17] | Potency [8] | Potency [9] | Potency [12] | Potency [5]

C[C@@]1(c2cc(-c3cncnc3)c(F)cc2F)CCSC(N)=N1
inactive: Potency [8] | Potency [20] | Potency [4]
active: Potency [10] 9.35 µM
inconclusive: Potency [2] 4.69 µM [cytotoxic, partial curve, poor fit] | Potency [6] 26.4 µM [cytotoxic, partial curve, poor fit] | Potency [15] 37.2 µM [cytotoxic, single point] | Potency [7] 16.6 µM [cytotoxic, partial curve] | Potency [16] 37.2 µM [cytotoxic, single point] | Potency [17] 1.87 µM [cytotoxic, full curve] | Potency [9] 37.2 µM [cytotoxic, single point] | Potency [11] 0.0264 µM [rising, full curve, poor fit] | Potency [3] 3.72 µM [cytotoxic, full curve, poor fit] | Potency [13] 33.2 µM [cytotoxic, single point] | Potency [5] 33.2 µM [cytotoxic, single point]

CC1COc2c(N3CCN(C)CC3)c(F)cc3c(=O)c(C(=O)O)cn1c23 (stereo unspecified)
inconclusive: Potency [6] 0.935 µM [cytotoxic, full curve, poor fit] | Potency [9] 23.5 µM [cytotoxic, partial curve, poor fit] | Potency [10] 1.18 µM [cytotoxic, full curve, poor fit] | Potency [13] 23.5 µM [cytotoxic, single point]
inactive: Potency [2] | Potency [15] | Potency [7] | Potency [16] | Potency [8] | Potency [4] | Potency [5]
active: Potency [17] 18.7 µM | Potency [19] 5.26 µM

OC[C@H]1O[C@@H](Oc2cc(O)cc(C=Cc3ccc(O)cc3)c2)[C@H](O)[C@@H](O)[C@H]1O
inactive: Potency [17] | Potency [8] | Potency [20] | Potency [3] | Potency [14]
inconclusive: Potency [2] 0.0026 µM [cytotoxic, full curve, poor fit] | viability (% of control) [6] 94.9% [cytotoxic] | Potency [15] 4.69 µM [cytotoxic, full curve, poor fit] | Potency [7] 33.2 µM [cytotoxic, single point] | Potency [16] 37.2 µM [cytotoxic, single point] | Potency [10] 20.9 µM [cytotoxic, partial curve, poor fit] | Potency [11] 0.003 µM [rising, full curve, poor fit] | Potency [18] 0.0083 µM [rising, full curve, poor fit] | Potency [13] 16.6 µM [cytotoxic, partial curve, poor fit] | Potency [4] 0.0012 µM [cytotoxic, full curve, poor fit]

N#Cc1cc(NC(=O)Nc2nnc(-c3ccncc3)s2)ccc1-c1cn[nH]c1
inactive: Potency [1]
inconclusive: Potency [15] 0.118 µM [cytotoxic, full curve, poor fit] | Potency [8] 0.526 µM [cytotoxic, partial curve, poor fit] | Potency [9] 0.0023 µM [cytotoxic, full curve, poor fit] | Potency [10] 0.0235 µM [cytotoxic, full curve, poor fit] | Potency [19] 29.6 µM [rising, partial curve] | Potency [3] 0.0042 µM [cytotoxic, full curve, poor fit]
